{
  "source": "PubChem BioAssay AID540303",
  "about": "(National Center for Advancing Translational Sciences (NCATS), 2011)",
  "note": "The whole screen tested about 330,000 compounds, of which about 1,000 (0.3%) were called active. Inconclusive means that the source gave no clear call. Such entries were picked first, then a sample of the others. The call rests on the fitted dose curve; in most records, active means well fitted inhibition curve with a large enough effect; inconclusive means small, poorly fitted or top-dose-only effect; inactive means no such curve, though single readings can be large or run the other way; tested in mouse RAW 264.7 cells. Potencies of inconclusive entries are doubtful fits and often do not repeat. Potency means the concentration at half of the fitted maximal effect.",
  "data": [
    {"test": "qHTS for Inhibitors of Cell Surface uPA Generation; further: nearly all actives have a fitted effect of over 55% in size", "conditions": "cell surface uPA generation assay; series mostly up to 38.3 µM", "method_in_brief": "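Murine RAW 264.7 cells are treated for 24 h with compound up to 38.3 uM final. Cell ATP, measured by ATP-Lite, remains high if blocking the uPA cascade prevents LF from reaching the cytoplasm.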", "values": [
      {"smiles": "Cc1cc(C(=O)N2CCc3ccccc3C2)c(C)o1", "Potency": "inconclusive: 12.6 µM [inhibitor, single point]"},
      {"smiles": "COc1c(O)cccc1/C=N/NC(=O)Cn1ccnc1C", "Potency": "inconclusive: 10 µM [inhibitor, single point]"},
      {"smiles": "O=C(c1cc(-c2ccc(O)cc2)on1)N1CCCc2ccccc21", "Potency": "inconclusive: 10 µM [inhibitor, partial curve]"},
      {"smiles": "O=C(NC(=S)NNC(=O)c1ccccc1O)c1ccc([N+](=O)[O-])cc1", "Potency": "inconclusive: 3.16 µM [inhibitor, partial curve, poor fit]"},
      {"smiles": "C/C(=N\\NC(=O)C1(C)CC1(Br)Br)c1cccc(NC(=O)C2CCC2)c1", "note": "(stereo not given)", "Potency": "inactive"},
      {"smiles": "CC(=O)Oc1ccc([C@@H]2COc3c(ccc4c3C=CC(C)(C)O4)C2)c(OC(C)=O)c1", "Potency": "inactive"},
      {"smiles": "CNc1oc(/C=C/c2cccc(OC)c2)nc1C#N", "Potency": "inconclusive: 3.98 µM [inhibitor, partial curve, poor fit]"},
      {"smiles": "O=C(CC1C(=O)NCCN1C(=O)c1ccc(Cl)cc1)Nc1ccc(F)cc1", "note": "(stereo not given)", "Potency": "inactive"},
      {"smiles": "O=C(Cn1cnnn1)Nc1cccc(S(=O)(=O)N2CCCCC2)c1", "Potency": "inactive"},
      {"smiles": "COc1ccc(NS(=O)(=O)c2cc(NC(=O)Cn3cnc4c3c(=O)n(C)c(=O)n4C)ccc2C)cc1", "Potency": "inconclusive: 28.2 µM [inhibitor, single point]"},
      {"smiles": "COc1ccccc1N1CCN(C(=O)c2sc3ncn(CC(=O)N4CCC(C)CC4)c(=O)c3c2C)CC1", "Potency": "inconclusive: 0.355 µM [inhibitor, full curve, poor fit]"},
      {"smiles": "CCC(=O)Nc1c(-c2ccc3ccccc3c2)nc2ccccn12", "Potency": "inconclusive: 7.08 µM [inhibitor, single point]"},
      {"smiles": "COc1cc(-c2cc(=O)c3c(O)cc(O)cc3o2)ccc1O", "Potency": "inconclusive: 11.2 µM [inhibitor, single point]"},
      {"smiles": "NC(=O)N/N=C1\\c2ccccc2-c2c(C(N)=O)cccc21", "Potency": "inconclusive: 1.78 µM [inhibitor, full curve, poor fit]"},
      {"smiles": "COC(=O)c1ccccc1NC(=O)CN(c1c(C)cccc1C)S(C)(=O)=O", "Potency": "inactive"},
      {"smiles": "CCOc1cc(CNCCSc2nnnn2C)cc(Br)c1OCc1ccccc1", "Potency": "inactive"},
      {"smiles": "CCN(CC(=O)N1CCCC1)S(=O)(=O)c1ccccc1", "Potency": "inconclusive: 1.41 µM [inhibitor, partial curve, poor fit]"},
      {"smiles": "O=C1C(=O)N(c2nccs2)C(c2ccccc2F)/C1=C(\\O)c1ccc2c(c1)OCCO2", "note": "(stereo not given)", "Potency": "inconclusive: 4.47 µM [inhibitor, partial curve, poor fit]"},
      {"smiles": "CC(=O)NNC(=S)NC(=O)c1ccc(C)cc1", "Potency": "inactive"},
      {"smiles": "COc1ccccc1NC(=S)N=Nc1c(O)[nH]c2ccc(Br)cc12", "Potency": "inconclusive: 1.26 µM [inhibitor, full curve, poor fit]"},
      {"smiles": "O=S(=O)(Nc1ccc(Cl)nn1)c1ccccc1", "Potency": "inconclusive: 11.2 µM [inhibitor, single point]"},
      {"smiles": "Oc1ccc(/C=C/c2ccc3ccccc3n2)cc1", "Potency": "inconclusive: 3.55 µM [inhibitor, partial curve, poor fit]"},
      {"smiles": "COc1ccc(-c2nc(-c3ccncc3)no2)c(OC)c1", "Potency": "inconclusive: 10 µM [inhibitor, partial curve, poor fit]"},
      {"smiles": "Cc1ccc(-c2cc(C(=O)N/N=C/c3c(C)nn(-c4ccccc4)c3C)n[nH]2)s1", "Potency": "inconclusive: 1 µM [inhibitor, full curve, poor fit]"},
      {"smiles": "O=C(Nc1cccc(Br)c1)c1cc(S(=O)(=O)N2CCOCC2)cs1", "Potency": "inactive"},
      {"smiles": "Cc1nccc(-c2cccc(N/N=C(\\C#N)C(=O)c3ccccc3)c2)n1", "Potency": "inconclusive: 8.91 µM [inhibitor, single point]"},
      {"smiles": "O=C(NCCCN1CCOCC1)c1cc(-c2ccccc2F)no1", "Potency": "inconclusive: 6.31 µM [inhibitor, partial curve, poor fit]"},
      {"smiles": "Cc1ccc(-c2cn3nc(C)c(C)nc3n2)cc1", "Potency": "inactive"},
      {"smiles": "C[C@H](CO)N1C[C@H](C)[C@@H](CN(C)S(=O)(=O)c2cccs2)Oc2ccc(NC(=O)Nc3ccc(C(F)(F)F)cc3)cc2C1=O", "Potency": "inconclusive: 12.6 µM [inhibitor, single point]"},
      {"smiles": "COc1cc(/C=C2\\CCc3c2nc2ccccc2c3C(=O)O)cc(OC)c1OC", "Potency": "inconclusive: 1.12 µM [inhibitor, full curve, poor fit]"},
      {"smiles": "Cc1cnc(NS(=O)(=O)c2ccccc2)c(C)n1", "Potency": "inconclusive: 1 µM [inhibitor, single point]"},
      {"smiles": "Cc1ccc(NC(=O)Cn2ccc([N+](=O)[O-])n2)cc1C", "Potency": "inactive"},
      {"smiles": "CSc1ccc(NC(=O)Nc2ccccc2C(N)=O)cc1", "Potency": "inconclusive: 5.01 µM [inhibitor, single point]"},
      {"smiles": "CC1(C)CC(=O)C2=C(C1)OC(N)=C(C#N)C2C#Cc1ccccc1", "note": "(stereo not given)", "Potency": "inactive"},
      {"smiles": "Cc1cc2nc3ccc(N(C)C)cc3nc2cc1N", "Potency": "inconclusive: 28.2 µM [inhibitor, single point]"},
      {"smiles": "O=C(O)c1ccc2cccnc2n1", "Potency": "inactive"},
      {"smiles": "CN(CC(=O)Nc1ccc(N2CCOCC2)cc1)C(=O)CSc1ccc(Br)cc1", "Potency": "inactive"},
      {"smiles": "Cn1nc(-c2ccc3c(c2)OCCO3)c2ccccc2c1=O", "Potency": "inactive"},
      {"smiles": "CCCSc1ccc2nc(NC(=O)OC)[nH]c2c1", "Potency": "inconclusive: 0.0141 µM [inhibitor, full curve, poor fit]"},
      {"smiles": "O=C(Cn1ccc(NC(=O)OCc2ccccc2)nc1=O)NCCCc1ccccc1", "Potency": "inconclusive: 0.891 µM [inhibitor, partial curve, poor fit]"},
      {"smiles": "NS(=O)(=O)c1ccc(C(=O)Nc2ccc(-c3nc4cccnc4s3)cc2)cc1", "Potency": "inconclusive: 10 µM [inhibitor, single point]"},
      {"smiles": "CCC(C)NC(=O)CSc1c2c(nc3ccccc13)CCCC2", "note": "(stereo not given)", "Potency": "inconclusive: 12.6 µM [inhibitor, single point]"},
      {"smiles": "CN(c1ccc(C(=O)Nc2ccc3c(c2)OCO3)cc1)S(C)(=O)=O", "Potency": "inconclusive: 8.91 µM [inhibitor, single point]"},
      {"smiles": "COc1ccc2c(c1)CCC1=C2NC(=S)NC1c1ccc(N(C)C)cc1", "note": "(stereo not given)", "Potency": "inactive"},
      {"smiles": "Cc1ccc(-c2nc(N/N=C/c3ccncc3)c3ccccc3n2)cc1", "Potency": "inconclusive: 0.398 µM [inhibitor, full curve, poor fit]"}
    ]}
  ]
}
